Measured values reported in the supplement of paper PMC10849652.
The list shows a part of the results.

Amino acid sequences for entries named in this document (tags omitted). A change or cut given only in a name is not applied to a line headed by its entry.
UniProt Q12846: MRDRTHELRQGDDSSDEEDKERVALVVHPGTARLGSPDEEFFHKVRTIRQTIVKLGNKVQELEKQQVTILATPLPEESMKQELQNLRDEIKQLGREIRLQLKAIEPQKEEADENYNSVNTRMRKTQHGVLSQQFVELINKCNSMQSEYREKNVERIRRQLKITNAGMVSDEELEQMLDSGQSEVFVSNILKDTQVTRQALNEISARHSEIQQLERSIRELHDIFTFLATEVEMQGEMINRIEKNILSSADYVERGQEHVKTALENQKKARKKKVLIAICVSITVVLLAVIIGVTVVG
UniProt Q86TM6, whole entry, looked up: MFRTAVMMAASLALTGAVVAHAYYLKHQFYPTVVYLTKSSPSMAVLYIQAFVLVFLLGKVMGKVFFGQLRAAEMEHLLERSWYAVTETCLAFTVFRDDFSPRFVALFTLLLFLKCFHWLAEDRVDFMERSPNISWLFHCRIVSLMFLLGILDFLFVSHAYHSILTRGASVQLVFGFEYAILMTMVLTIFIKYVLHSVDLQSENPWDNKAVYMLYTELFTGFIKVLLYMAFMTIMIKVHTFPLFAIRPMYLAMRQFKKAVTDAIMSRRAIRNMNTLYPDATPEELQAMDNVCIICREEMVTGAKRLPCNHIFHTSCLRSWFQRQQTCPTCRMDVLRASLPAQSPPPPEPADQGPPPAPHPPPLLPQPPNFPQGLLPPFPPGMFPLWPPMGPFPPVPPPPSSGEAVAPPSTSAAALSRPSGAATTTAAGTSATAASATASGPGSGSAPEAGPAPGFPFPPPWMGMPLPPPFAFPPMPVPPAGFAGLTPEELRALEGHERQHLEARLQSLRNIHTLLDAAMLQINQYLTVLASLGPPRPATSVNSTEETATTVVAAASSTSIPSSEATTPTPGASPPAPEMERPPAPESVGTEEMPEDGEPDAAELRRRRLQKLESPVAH
UniProt P26639: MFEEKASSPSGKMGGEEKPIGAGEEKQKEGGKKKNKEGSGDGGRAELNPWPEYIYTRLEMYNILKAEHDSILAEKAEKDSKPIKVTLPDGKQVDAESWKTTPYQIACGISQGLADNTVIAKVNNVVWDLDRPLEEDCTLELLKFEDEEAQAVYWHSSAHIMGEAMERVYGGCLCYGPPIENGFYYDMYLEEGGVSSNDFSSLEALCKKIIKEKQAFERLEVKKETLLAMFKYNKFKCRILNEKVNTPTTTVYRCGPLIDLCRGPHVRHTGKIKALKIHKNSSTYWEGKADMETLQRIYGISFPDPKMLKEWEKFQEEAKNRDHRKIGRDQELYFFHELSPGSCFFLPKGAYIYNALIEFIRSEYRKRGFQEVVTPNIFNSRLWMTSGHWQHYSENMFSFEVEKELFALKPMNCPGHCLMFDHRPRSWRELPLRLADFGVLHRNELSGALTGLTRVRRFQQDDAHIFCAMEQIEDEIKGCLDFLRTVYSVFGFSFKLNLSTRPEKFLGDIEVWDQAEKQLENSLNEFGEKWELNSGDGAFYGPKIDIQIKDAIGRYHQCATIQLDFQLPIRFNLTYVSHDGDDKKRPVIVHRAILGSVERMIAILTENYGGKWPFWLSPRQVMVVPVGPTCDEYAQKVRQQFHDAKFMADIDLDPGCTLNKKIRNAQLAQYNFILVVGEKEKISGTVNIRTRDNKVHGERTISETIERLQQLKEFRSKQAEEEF
UniProt Q7Z422: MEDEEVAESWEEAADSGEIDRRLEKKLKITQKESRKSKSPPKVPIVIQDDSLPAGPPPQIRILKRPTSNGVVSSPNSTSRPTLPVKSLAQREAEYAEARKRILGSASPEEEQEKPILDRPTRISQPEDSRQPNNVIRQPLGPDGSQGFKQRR
UniProt Q9Y3F4: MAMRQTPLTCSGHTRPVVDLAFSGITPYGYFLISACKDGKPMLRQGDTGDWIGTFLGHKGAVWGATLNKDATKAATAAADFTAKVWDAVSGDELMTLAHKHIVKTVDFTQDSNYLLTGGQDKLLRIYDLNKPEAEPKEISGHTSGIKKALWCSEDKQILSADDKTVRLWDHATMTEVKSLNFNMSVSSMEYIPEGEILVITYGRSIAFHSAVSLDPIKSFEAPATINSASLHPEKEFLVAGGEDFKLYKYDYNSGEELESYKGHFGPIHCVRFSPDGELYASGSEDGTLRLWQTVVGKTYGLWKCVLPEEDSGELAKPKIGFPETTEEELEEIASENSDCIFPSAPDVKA
UniProt Q9UH65: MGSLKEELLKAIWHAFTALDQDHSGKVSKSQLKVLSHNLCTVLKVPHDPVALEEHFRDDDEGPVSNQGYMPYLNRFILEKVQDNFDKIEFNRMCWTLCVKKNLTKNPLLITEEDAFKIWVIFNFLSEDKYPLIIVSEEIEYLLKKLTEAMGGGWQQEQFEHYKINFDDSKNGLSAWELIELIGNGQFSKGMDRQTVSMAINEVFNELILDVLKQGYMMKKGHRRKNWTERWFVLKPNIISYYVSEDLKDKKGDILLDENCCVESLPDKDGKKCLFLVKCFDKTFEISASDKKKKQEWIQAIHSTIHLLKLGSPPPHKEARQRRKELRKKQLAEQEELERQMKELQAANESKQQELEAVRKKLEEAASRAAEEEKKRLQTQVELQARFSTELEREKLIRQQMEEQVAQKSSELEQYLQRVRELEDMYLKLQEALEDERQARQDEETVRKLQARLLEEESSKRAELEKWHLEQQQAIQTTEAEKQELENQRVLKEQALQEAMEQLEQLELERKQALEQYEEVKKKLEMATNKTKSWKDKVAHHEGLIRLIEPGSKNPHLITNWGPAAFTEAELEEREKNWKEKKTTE
UniProt Q17R31: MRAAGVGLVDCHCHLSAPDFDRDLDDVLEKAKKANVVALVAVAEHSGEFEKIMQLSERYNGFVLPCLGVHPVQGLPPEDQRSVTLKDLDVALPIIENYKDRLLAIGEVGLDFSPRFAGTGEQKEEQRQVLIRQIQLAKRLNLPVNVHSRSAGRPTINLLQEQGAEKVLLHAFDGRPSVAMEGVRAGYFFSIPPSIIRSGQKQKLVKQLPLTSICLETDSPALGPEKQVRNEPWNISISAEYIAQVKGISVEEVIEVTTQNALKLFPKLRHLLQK
UniProt O15260: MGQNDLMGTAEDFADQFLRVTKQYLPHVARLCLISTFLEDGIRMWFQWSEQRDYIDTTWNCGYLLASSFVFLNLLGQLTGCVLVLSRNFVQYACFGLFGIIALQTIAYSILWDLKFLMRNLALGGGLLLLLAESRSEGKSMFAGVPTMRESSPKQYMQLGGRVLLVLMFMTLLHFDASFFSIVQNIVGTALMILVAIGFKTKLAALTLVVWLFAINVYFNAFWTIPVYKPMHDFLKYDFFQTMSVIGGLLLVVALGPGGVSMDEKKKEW
UniProt Q9UNK0: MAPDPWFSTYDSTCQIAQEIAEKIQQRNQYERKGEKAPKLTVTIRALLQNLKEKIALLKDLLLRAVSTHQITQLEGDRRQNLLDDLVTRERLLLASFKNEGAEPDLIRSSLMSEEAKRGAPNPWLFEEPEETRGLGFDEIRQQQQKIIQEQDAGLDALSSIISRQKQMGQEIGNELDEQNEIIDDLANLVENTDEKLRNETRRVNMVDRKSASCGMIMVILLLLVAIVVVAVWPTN
UniProt Q9UNE7: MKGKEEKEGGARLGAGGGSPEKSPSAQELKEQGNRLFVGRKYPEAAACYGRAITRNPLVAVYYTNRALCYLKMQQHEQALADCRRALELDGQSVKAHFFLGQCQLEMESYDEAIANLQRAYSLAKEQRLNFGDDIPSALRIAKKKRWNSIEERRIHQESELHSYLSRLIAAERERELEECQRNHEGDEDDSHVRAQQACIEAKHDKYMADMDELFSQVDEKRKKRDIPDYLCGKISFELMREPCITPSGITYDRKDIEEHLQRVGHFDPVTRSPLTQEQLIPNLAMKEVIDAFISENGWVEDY
UniProt Q6P1N9: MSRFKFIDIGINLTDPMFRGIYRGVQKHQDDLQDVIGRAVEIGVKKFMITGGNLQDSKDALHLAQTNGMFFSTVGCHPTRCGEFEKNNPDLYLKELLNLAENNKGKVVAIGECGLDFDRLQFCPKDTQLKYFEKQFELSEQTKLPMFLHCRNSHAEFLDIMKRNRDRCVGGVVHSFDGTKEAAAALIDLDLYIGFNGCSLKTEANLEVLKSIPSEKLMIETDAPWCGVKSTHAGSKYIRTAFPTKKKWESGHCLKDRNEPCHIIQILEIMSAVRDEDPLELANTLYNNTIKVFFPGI
UniProt Q12962, whole entry, looked up: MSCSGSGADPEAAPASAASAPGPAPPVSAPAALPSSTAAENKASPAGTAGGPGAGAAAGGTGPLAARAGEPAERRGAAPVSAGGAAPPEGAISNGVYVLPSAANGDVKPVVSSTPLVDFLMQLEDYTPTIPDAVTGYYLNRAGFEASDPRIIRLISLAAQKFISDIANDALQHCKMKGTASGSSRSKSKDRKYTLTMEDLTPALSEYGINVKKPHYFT
UniProt Q9Y2Z0: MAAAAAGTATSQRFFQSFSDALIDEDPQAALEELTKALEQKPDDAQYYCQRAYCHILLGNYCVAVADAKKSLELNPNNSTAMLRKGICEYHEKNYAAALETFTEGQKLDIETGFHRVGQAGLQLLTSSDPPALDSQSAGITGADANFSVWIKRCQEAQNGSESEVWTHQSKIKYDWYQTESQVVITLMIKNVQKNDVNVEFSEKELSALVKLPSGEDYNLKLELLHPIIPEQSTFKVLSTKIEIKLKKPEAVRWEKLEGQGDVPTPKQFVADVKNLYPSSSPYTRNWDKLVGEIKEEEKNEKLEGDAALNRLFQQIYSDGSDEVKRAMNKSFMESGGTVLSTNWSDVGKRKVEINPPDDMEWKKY
UniProt O43426, whole entry, looked up: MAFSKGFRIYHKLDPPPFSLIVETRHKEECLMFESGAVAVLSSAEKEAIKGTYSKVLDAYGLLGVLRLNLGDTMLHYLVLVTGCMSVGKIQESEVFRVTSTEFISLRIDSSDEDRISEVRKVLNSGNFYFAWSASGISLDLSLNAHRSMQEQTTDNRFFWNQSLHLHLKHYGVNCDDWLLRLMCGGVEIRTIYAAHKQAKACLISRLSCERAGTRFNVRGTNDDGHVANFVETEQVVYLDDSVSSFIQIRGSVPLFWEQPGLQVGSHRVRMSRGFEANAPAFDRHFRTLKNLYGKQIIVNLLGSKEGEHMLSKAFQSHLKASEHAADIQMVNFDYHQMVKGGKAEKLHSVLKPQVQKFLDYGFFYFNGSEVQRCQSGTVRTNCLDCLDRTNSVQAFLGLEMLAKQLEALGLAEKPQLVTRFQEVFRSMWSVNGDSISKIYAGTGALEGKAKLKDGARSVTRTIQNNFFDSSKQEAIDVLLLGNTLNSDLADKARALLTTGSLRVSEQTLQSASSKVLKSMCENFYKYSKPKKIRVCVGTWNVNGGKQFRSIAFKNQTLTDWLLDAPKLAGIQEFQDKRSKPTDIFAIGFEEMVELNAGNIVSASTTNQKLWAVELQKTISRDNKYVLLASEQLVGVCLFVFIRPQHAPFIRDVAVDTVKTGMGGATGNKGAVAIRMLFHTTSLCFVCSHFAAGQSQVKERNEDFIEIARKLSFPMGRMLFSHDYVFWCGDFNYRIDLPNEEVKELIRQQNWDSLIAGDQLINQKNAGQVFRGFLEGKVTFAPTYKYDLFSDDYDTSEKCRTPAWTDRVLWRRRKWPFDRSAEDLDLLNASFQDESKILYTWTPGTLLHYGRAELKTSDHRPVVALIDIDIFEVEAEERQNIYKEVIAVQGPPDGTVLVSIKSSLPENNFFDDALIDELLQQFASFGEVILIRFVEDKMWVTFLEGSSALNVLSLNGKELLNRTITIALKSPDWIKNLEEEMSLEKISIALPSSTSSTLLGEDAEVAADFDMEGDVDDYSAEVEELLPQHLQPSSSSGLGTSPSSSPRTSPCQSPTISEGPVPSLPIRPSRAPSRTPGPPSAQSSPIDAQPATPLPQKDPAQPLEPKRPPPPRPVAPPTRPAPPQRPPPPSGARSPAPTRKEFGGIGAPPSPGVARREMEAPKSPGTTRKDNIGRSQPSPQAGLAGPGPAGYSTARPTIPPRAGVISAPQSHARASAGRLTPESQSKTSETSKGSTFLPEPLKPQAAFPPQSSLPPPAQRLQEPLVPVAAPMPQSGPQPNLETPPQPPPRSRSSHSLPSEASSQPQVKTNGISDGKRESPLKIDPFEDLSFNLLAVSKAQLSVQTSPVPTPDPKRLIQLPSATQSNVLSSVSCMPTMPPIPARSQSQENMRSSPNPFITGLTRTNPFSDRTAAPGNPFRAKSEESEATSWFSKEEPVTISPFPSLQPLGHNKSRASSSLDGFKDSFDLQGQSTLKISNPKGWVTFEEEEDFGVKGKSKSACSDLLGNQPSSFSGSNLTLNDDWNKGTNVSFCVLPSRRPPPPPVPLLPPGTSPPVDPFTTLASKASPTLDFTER

Key:
Assay in all cases: log2 fold change, soluble protein after heating vs DMSO (PISA); higher = thermal stabilisation; K562 cells, 10 uM, 30 min; active = over 0.2 and 3.5 SD of the protein, either way, in both replicates (recomputed)
[1] = compound: CC1=C(C=C(C=C1)NC(=O)C2=CC(=CC=C2)C(C)(C)C#N)NC3=CC4=C(C=C3)N=CN(C4=O)C
Procedure, shortened: (§1)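 K562 cells (2×10^6 cells/mL) were treated with 10 μM compound for 30 min, and aliquots were heated for 3 min over 48°C-58°C. Pooled aliquots were extracted in PBS with 0.5% NP-40 at 4°C, and the supernatant after 21,000xg for 90 min was measured by TMTpro 16plex LC-MS/MS with channel sums equalised. Reported thermal stability, relative to control samples and from duplicates, is a log2 fold change.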

[2] = compound: CC1=C(C=C(C=C1)NC(=O)C2=CC(=CC=C2)N(C)C)NC(=O)C3=CC=C(C=C3)O
Procedure, shortened: as §1

[3] = compound: CC1=CC=C(C=C1)SC2=C3C=C(SC3=CN=C2)C(=O)N
Procedure, shortened: as §1

[4] = compound: CC1=NC(=CC=C1)C2=C(N=C(N2)C(C)(C)C)C3=CC4=NC=CN=C4C=C3
Procedure, shortened: as §1

Nexturastat A = compound: CCCCN(Cc1ccc(C(=O)NO)cc1)C(=O)Nc1ccccc1 [Nexturastat A]
Procedure, shortened: as §1

vemurafenib = compound: CCCS(=O)(=O)Nc1ccc(F)c(C(=O)c2c[nH]c3ncc(-c4ccc(Cl)cc4)cc23)c1F [vemurafenib]
Procedure, shortened: as §1

[5] = compound: CCCS(=O)(=O)Nc1ccc(F)c(C(=O)c2c[nH]c3ncc(Cl)cc23)c1F
Procedure, shortened: as §1

[6] = compound: CCCc1cc(C)[nH]c(=O)c1CNC(=O)c1cc(-c2ccnc(N3CCN(C)CC3)c2)cc2c1cnn2C(C)C
Procedure, shortened: as §1

givinostat = compound: CCN(CC)Cc1ccc2cc(COC(=O)Nc3ccc(C(=O)NO)cc3)ccc2c1 [givinostat]
Procedure, shortened: as §1

barasertib = compound: CCN(CCCOc1ccc2c(Nc3cc(CC(=O)Nc4cccc(F)c4)[nH]n3)ncnc2c1)CCOP(=O)(O)O [barasertib]
Procedure, shortened: as §1

[7] = compound: CC[C@@H]1C(=O)N(C)c2cnc(Nc3ccc(C(=O)NC4CCN(C)CC4)cc3OC)nc2N1C1CCCC1
Procedure, shortened: as §1

volasertib = compound: CC[C@@H]1C(=O)N(C)c2cnc(Nc3ccc(C(=O)N[C@H]4CC[C@H](N5CCN(CC6CC6)CC5)CC4)cc3OC)nc2N1C(C)C [volasertib]
Procedure, shortened: as §1

[8] = compound: CC[C@H](C)N1C=C(C2=C(C=C(C=C21)C3=CN=C(C=C3)N4CCNCC4)C(=O)NCC5=C(C=C(NC5=O)C)C)C
Procedure, shortened: as §1

epoxomicin = compound: CC[C@H](C)[C@@H](C(=O)N[C@@H]([C@@H](C)O)C(=O)N[C@@H](CC(C)C)C(=O)[C@]1(CO1)C)NC(=O)[C@H]([C@@H](C)CC)N(C)C(=O)C [epoxomicin]
Procedure, shortened: as §1

[9] = compound: CCn1c(C(=O)N(C2CC2)C2CC2)cc2c3c(ncn3C)c(Nc3cc(C)n(C)n3)nc21
Procedure, shortened: as §1

[10] = compound: CCn1cc(-c2ccnc3[nH]c(-c4cccc(CN(C)C)c4)cc23)c(-c2ccc(NC(=O)N(C)C)cc2)n1
Procedure, shortened: as §1

[11] = compound: CN(C)CC(=O)Nc1ccc2[nH]c(=O)c3ccccc3c2c1
Procedure, shortened: as §1

rosiglitazone = compound: CN(CCOC1=CC=C(C=C1)C[C@H]2C(=O)NC(=O)S2)C3=CC=CC=N3 (racemic) [rosiglitazone]
Procedure, shortened: as §1

[12] = compound: CN1C2=C(C3=C1C(=O)N(N=C3)CC4=CC(=CC=C4)N)SC(=C2)S(=O)C
Procedure, shortened: as §1

[13] = compound: CN1CCC(CNc2ccc3ncc(-c4cccc(OC(F)(F)F)c4)n3n2)CC1
Procedure, shortened: as §1

Measured: log2 fold change

STX4 (UniProt Q12846)
inactive: [1] -0.003 | [2] -0.071 | [3] 0.009 | [4] 0.024 | Nexturastat A -0.033 | vemurafenib 0.017 | [5] 0.012 | [6] 0 | givinostat 0.03 | barasertib 0.026 | [7] 0.035 | volasertib -0.051 | [8] 0.039 | epoxomicin 0.019 | [9] -0.005 | [10] 0.01 | [11] -0.046 | rosiglitazone 0.024 | [12] 0.023 | [13] 0.086

SYVN1 (UniProt Q86TM6)
inactive: [1] 0.001 | [2] 0.021 | [3] 0.016 | [4] 0.047 | Nexturastat A -0.039 | vemurafenib -0.008 | [5] 0.057 | [6] -0.064 | givinostat 0 | barasertib -0.009 | [7] 0.076 | volasertib -0.085 | [8] -0.011 | epoxomicin -0.02 | [9] -0.013 | [10] -0.001 | [11] 0.028 | rosiglitazone 0.025 | [12] -0.054 | [13] 0.019

TARS1 (UniProt P26639)
inactive: [1] 0.04 | [2] -0.046 | [3] 0.039 | [4] 0.008 | Nexturastat A -0.035 | vemurafenib 0.018 | [5] 0.062 | [6] 0.022 | givinostat -0.019 | barasertib 0.01 | [7] -0.009 | volasertib -0.042 | [8] 0.045 | epoxomicin 0 | [9] 0.008 | [10] -0.094 | [11] 0.012 | rosiglitazone 0.041 | [12] -0.043 | [13] -0.098

SZRD1 (UniProt Q7Z422)
inactive: [1] 0 | [2] 0.017 | [3] -0.011 | [4] 0.145 | Nexturastat A -0.107 | vemurafenib -0.019 | [5] 0.009 | [6] -0.111 | givinostat -0.017 | barasertib 0.02 | [7] -0.017 | volasertib 0.091 | [8] 0.001 | epoxomicin 0.003 | [9] -0.026 | [10] -0.018 | [11] -0.059 | rosiglitazone -0.059 | [12] 0.011 | [13] -0.026

SUB1 (UniProt P53999)
inactive: [1] -0.024 | [2] 0.016 | [3] -0.016 | [4] -0.029 | Nexturastat A -0.007 | vemurafenib 0.005 | [5] -0.035 | [6] 0.05 | givinostat -0.009 | barasertib 0.014 | [7] -0.047 | volasertib 0.037 | [8] 0.019 | epoxomicin -0.009 | [9] -0.001 | [10] -0.001 | [11] -0.038 | rosiglitazone 0.011 | [12] -0.01 | [13] -0.041

STRAP isoform 2 (UniProt Q9Y3F4)
inactive: [1] 0.011 | [2] 0.013 | [3] 0.008 | [4] 0.001 | Nexturastat A -0.019 | vemurafenib -0.016 | [5] 0.007 | [6] -0.023 | givinostat -0.051 | barasertib -0.023 | [7] 0.078 | volasertib 0.064 | [8] -0.023 | epoxomicin -0.025 | [9] 0.002 | [10] 0.022 | [11] -0.016 | rosiglitazone -0.019 | [12] -0.011 | [13] -0.02

SWAP70 (UniProt Q9UH65)
inactive: [1] -0.012 | [2] -0.013 | [3] 0.025 | [4] 0.03 | Nexturastat A -0.06 | vemurafenib 0 | [5] 0.021 | [6] -0.002 | givinostat -0.019 | barasertib -0.014 | [7] 0.012 | volasertib -0.056 | [8] 0.024 | epoxomicin 0.015 | [9] 0.005 | [10] -0.001 | [11] -0.05 | rosiglitazone 0.008 | [12] -0.045 | [13] 0.042

TATDN3 isoform 3 (UniProt Q17R31)
inactive: [1] 0.009 | [2] 0.027 | [3] -0.011 | [4] 0.013 | Nexturastat A -0.069 | vemurafenib -0.063 | [5] -0.142 | [6] 0.005 | givinostat -0.06 | barasertib -0.004 | [7] -0.008 | volasertib 0.121 | [8] 0.015 | epoxomicin 0.017 | [9] 0.056 | [10] 0.031 | [11] -0.082 | rosiglitazone 0.017 | [12] -0.079 | [13] 0.118

TACC3 (UniProt Q9Y6A5)
inactive: [1] 0.005 | [2] -0.021 | [3] 0.016 | [4] -0.006 | Nexturastat A -0.01 | vemurafenib 0.004 | [5] 0.011 | [6] -0.072 | givinostat -0.052 | barasertib -0.005 | [7] -0.024 | volasertib 0.024 | [8] -0.011 | epoxomicin 0.023 | [9] 0.009 | [10] 0 | [11] 0.011 | rosiglitazone 0 | [12] -0.052 | [13] 0.007

SURF4 (UniProt O15260)
inactive: [1] 0.019 | [2] -0.013 | [3] 0.014 | [4] 0 | Nexturastat A -0.064 | vemurafenib 0 | [5] -0.006 | [6] -0.023 | givinostat 0.008 | barasertib -0.043 | [7] 0.028 | volasertib -0.033 | [8] -0.05 | epoxomicin -0.084 | [9] -0.023 | [10] 0.015 | [11] -0.007 | rosiglitazone 0.033 | [12] -0.036 | [13] 0.107

STX8 (UniProt Q9UNK0)
inactive: [1] -0.032 | [2] -0.024 | [3] 0.023 | [4] 0.03 | Nexturastat A -0.141 | vemurafenib 0.005 | [5] -0.02 | [6] 0.031 | givinostat 0.023 | barasertib -0.051 | [7] 0.04 | volasertib 0.021 | [8] -0.065 | epoxomicin -0.068 | [9] 0.071 | [10] 0.032 | [11] -0.02 | rosiglitazone -0.03 | [12] -0.11 | [13] -0.051

STUB1 (UniProt Q9UNE7)
inactive: [1] -0.007 | [2] 0.11 | [3] -0.035 | [4] -0.076 | Nexturastat A 0.3 | vemurafenib 0.035 | [5] -0.029 | [6] 0.061 | givinostat 0.05 | barasertib 0.002 | [7] 0.034 | volasertib -0.175 | [8] 0.065 | epoxomicin -0.076 | [9] -0.041 | [10] 0.02 | [11] -0.022 | rosiglitazone -0.013 | [12] 0.281 | [13] -0.041

TATDN1 (UniProt Q6P1N9)
inactive: [1] -0.038 | [2] 0.002 | [3] -0.001 | [4] -0.006 | Nexturastat A 0.079 | vemurafenib -0.045 | [5] -0.026 | [6] -0.002 | givinostat -0.147 | barasertib -0.004 | [7] 0.048 | volasertib 0.081 | [8] -0.008 | epoxomicin -0.018 | [9] -0.069 | [10] 0.009 | [11] -0.014 | rosiglitazone -0.007 | [12] 0.02 | [13] -0.01

TAF10 (UniProt Q12962)
inactive: [1] 0.072 | [2] -0.034 | [3] -0.004 | [4] 0.066 | Nexturastat A -0.062 | vemurafenib 0.079 | [5] 0.035 | [6] 0.008 | givinostat -0.114 | barasertib -0.037 | [7] 0.049 | volasertib 0.039 | [8] 0 | epoxomicin 0.023 | [9] 0.081 | [10] 0.01 | [11] -0.035 | rosiglitazone -0.013 | [12] -0.034 | [13] 0.183

SUGT1 (UniProt Q9Y2Z0)
inactive: [1] -0.007 | [2] -0.016 | [3] 0.021 | [4] 0.025 | Nexturastat A -0.076 | vemurafenib 0.029 | [5] 0.028 | [6] -0.013 | givinostat -0.025 | barasertib 0.007 | [7] -0.065 | volasertib -0.11 | [8] 0.013 | epoxomicin 0.041 | [9] -0.008 | [10] -0.033 | [11] -0.006 | rosiglitazone 0.024 | [12] -0.077 | [13] -0.041

SYNJ1 (UniProt O43426)
inactive: [1] -0.142 | [2] -0.034 | [3] -0.011 | [4] -0.057 | Nexturastat A 0.096 | vemurafenib 0.059 | [5] -0.035 | [6] -0.145 | givinostat 0.073 | barasertib -0.02 | [7] 0.077 | volasertib -0.009 | [8] -0.041 | epoxomicin -0.061 | [9] -0.037 | [10] -0.012 | [11] -0.009 | rosiglitazone -0.005 | [12] 0.088 | [13] 0.076
